# Measurements: paper PMC5432348
# These are yes or no findings as the source states them, for the method shown. Binding seen in cells or lysates may run through a third protein. Here binding means that the protein was enriched with, or labelled near, the bait; the list need not be complete.
# T1: CD9 (human (endogenous in Isreco1)), P21926
# T1 chain: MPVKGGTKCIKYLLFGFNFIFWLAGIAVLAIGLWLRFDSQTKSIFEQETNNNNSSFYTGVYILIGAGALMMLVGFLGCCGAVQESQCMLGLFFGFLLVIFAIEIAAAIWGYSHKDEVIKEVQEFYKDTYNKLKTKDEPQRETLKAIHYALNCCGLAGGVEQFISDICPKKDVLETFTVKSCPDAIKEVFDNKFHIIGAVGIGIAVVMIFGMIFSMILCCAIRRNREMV
# T2: tetraspanin Co-029/tspan8, P19075
# T2 chain: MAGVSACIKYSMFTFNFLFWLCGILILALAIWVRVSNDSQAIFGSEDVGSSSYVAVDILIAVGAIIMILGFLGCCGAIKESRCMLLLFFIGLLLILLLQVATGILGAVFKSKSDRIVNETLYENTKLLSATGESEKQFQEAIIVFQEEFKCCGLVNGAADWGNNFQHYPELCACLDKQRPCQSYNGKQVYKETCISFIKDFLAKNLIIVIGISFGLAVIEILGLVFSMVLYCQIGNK
# T3: tetraspanin Co-029/tspan8 (UniProt P19075)
# T3 sequence: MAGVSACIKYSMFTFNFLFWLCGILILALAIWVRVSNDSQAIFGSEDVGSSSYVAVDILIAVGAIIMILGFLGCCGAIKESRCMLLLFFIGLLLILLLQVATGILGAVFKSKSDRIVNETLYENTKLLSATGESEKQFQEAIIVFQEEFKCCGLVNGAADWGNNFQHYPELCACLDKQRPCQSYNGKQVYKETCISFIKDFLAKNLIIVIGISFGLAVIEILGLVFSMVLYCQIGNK
# How the values were obtained:
# Test in all cases: affinity purification with mass spectrometry; 1% Brij97 lysates of Isreco1 and Is1-Co029 cells cultured on collagen I (also on tissue culture plastic); beads coupled to mAb Ts9 (CD9) or TS29.2 (Co-029); SDS-PAGE, in-gel trypsin digestion, LC-MS/MS
# [1] = target: T1, CD9 (human (endogenous in Isreco1)), …; conditions: remark: other sources report otherwise
# [2] = target: T2, tetraspanin Co-029/tspan8, P19075; conditions: remark: other sources report otherwise
# [3] = target: CD9 (human (endogenous in Isreco1)) (UniProt P21926)
# [4] = target: T3, tetraspanin Co-029/tspan8
Binder,binding [1],binding [2],binding [3],binding [4]
"ADAM10, O14672 214-748 (protein) TTSAEKNTCQLYIQTDHLFFKYYGTREAVIAQISSHVKAIDTIYQTTDFSGIRNISFMVKRIRINTTADEKDPTNPFRFPNIGVEKFLELNSEQNHDDYCLAYVFTDRDFDDGVLGLAWVGAPSGSSGGICEKSKLYSDGKKKSLNTGIITVQNYGSHVPPKVSHITFAHEVGHNFGSPHDSGTECTPGESKNLGQKENGNYIMYARATSGDKLNNNKFSLCSIRNISQVLEKKRNNCFVESGQPICGNGMVEQGEECDCGYSDQCKDECCFDANQPEGRKCKLKPGKQCSPSQGPCCTAQCAFKSKSEKCRDDSDCAREGICNGFTALCPASDPKPNFTDCNRHTQVCINGQCAGSICEKYGLEECTCASSDGKDDKELCHVCCMKKMDPSTCASTGSVQWSRHFSGRTITLQPGSPCNDFRGYCDVFMRCRLVDADGPLARLKKAIFSPELYENIAEWIVAHWWAVLLMGIALIMLMAGFIKICSVHTPSSNPKLPPPKPLPGTLKRRRPPQPIQQPQRQRPRESYQMGHMRR",binds,,,
"STX4, Q12846 1-297 (protein) MRDRTHELRQGDDSSDEEDKERVALVVHPGTARLGSPDEEFFHKVRTIRQTIVKLGNKVQELEKQQVTILATPLPEESMKQELQNLRDEIKQLGREIRLQLKAIEPQKEEADENYNSVNTRMRKTQHGVLSQQFVELINKCNSMQSEYREKNVERIRRQLKITNAGMVSDEELEQMLDSGQSEVFVSNILKDTQVTRQALNEISARHSEIQQLERSIRELHDIFTFLATEVEMQGEMINRIEKNILSSADYVERGQEHVKTALENQKKARKKKVLIAICVSITVVLLAVIIGVTVVG",,binds,,
"ITFG3 (protein, UniProt Q9H0X4 1-552) MLDHKDLEAEIHPLKNEERKSQENLGNPSKNEDNVKSAPPQSRLSRCRAAAFFLSLFLCLFVVFVVSFVIPCPDRPASQRMWRIDYSAAVIYDFLAVDDINGDRIQDVLFLYKNTNSSNNFSRSCVDEGFSSPCTFAAAVSGANGSTLWERPVAQDVALVECAVPQPRGSEAPSACILVGRPSSFIAVNLFTGETLWNHSSSFSGNASILSPLLQVPDVDGDGAPDLLVLTQEREEVSGHLYSGSTGHQIGLRGSLGVDGESGFLLHVTRTGAHYILFPCASSLCGCSVKGLYEKVTGSGGPFKSDPHWESMLNATTRRMLSHSSGAVRYLMHVPGNAGADVLLVGSEAFVLLDGQELTPRWTPKAAHVLRKPIFGRYKPDTLAVAVENGTGTDRQILFLDLGTGAVLCSLALPSLPGGPLSASLPTADHRSAFFFWGLHELGSTSETETGEARHSLYMFHPTLPRVLLELANVSTHIVAFDAVLFEPSRHAAYILLTGPADSEAPGLVSVIKHKVRDLVPSSRVVRLGEGGPDSDQAIRDRFSRLRYQSEA",,,binds,binds

# Now from value to binder:
binding [1],binding [2],binding [3],binding [4],Binder
,,binds,binds,"TSPAN14 (protein, UniProt Q8NG11 1-270) MHYYRYSNAKVSCWYKYLLFSYNIIFWLAGVVFLGVGLWAWSEKGVLSDLTKVTRMHGIDPVVLVLMVGVVMFTLGFAGCVGALRENICLLNFFCGTIVLIFFLELAVAVLAFLFQDWVRDRFREFFESNIKSYRDDIDLQNLIDSLQKANQCCGAYGPEDWDLNVYFNCSGASYSREKCGVPFSCCVPDPAQKVVNTQCGYDVRIQLKSKWDESIFTKGCIQALESWLPRNIYIVAGVFIAISLLQIFGIFLARTLISDIEAVKAGHHF"
,,binds,binds,"STX7 (protein, UniProt O15400 1-261) MSYTPGVGGDPAQLAQRISSNIQKITQCSVEIQRTLNQLGTPQDSPELRQQLQQKQQYTNQLAKETDKYIKEFGSLPTTPSEQRQRKIQKDRLVAEFTTSLTNFQKVQRQAAEREKEFVARVRASSRVSGSFPEDSSKERNLVSWESQTQPQVQVQDEEITEDDLRLIHERESSIRQLEADIMDINEIFKDLGMMIHEQGDVIDSIEANVENAEVHVQQANQQLSRAADYQRKSRKTLCIIILILVIGVAIISLIIWGLNH"
